# The supplement of paper PMC8728848
# The list shows a part of the results.
# B1: Flo1 (Saccharomyces cerevisiae), P32768 (protein)
# chain: SGATEACLPAGQRKSGMNINFYQYSLKDSSTYSNAAYMAYGYASKTKLGSVGGQTDISIDYNIPCVSSSGTFPCPQEDSYGNWGCKGMGACSNSQGIAYWSTDLFGFYTTPTNVTLEMTGYFLPPQTGSYTFKFATVDDSAILSVGGATAFNCCAQQQPPITSTNFTIDGIKPWGGSLPPNIEGTVYMYAGYYYPMKVVYSNAVSWGTLPISVTLPDGTTVSDDFEGYVYSFDDDLSQSNCTVPDPSNY
# Columns and labels:
# Test in all cases: glycan array binding signal (z-score within array); higher = stronger binding
# Settings in all cases: glycan notation: IUPAC condensed, linker removed
# Fuc(a1-2)Gal = molecular target: Fuc(a1-2)Gal
# Summary of the method: (§1)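 Negative Z-scores can be read as non-binding. The Z-score is calculated within each array and then averaged across arrays of one protein sequence at different concentrations or buffers and across linkers. Arrays, 3228 in all, were curated from the Consortium for Functional Glycomics database and kept only where the protein sequence was available.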
# Fuc(a1-2)Gal(b1-3)GalNAc = molecular target: Fuc(a1-2)Gal(b1-3)GalNAc
# Summary of the method: as §1
# [1] = molecular target: Fuc(a1-2)Gal(b1-3)GalNAc(a1-3)[Fuc(a1-2)]Gal(b1-4)Glc
# Summary of the method: as §1
# [2] = molecular target: Fuc(a1-2)Gal(b1-3)GalNAc(a1-3)[Fuc(a1-2)]Gal(b1-4)GlcNAc
# Summary of the method: as §1
# [3] = molecular target: Fuc(a1-2)Gal(b1-3)GalNAc(b1-3)Gal
# Summary of the method: as §1
# [4] = molecular target: Fuc(a1-2)Gal(b1-3)GalNAc(b1-3)Gal(a1-4)Gal(b1-4)Glc
# Summary of the method: as §1
# [5] = molecular target: Fuc(a1-2)Gal(b1-3)GalNAc(b1-4)[Neu5Ac(a2-3)]Gal(b1-4)Glc
# Summary of the method: as §1
# Fuc(a1-2)Gal(b1-3)GlcNAc = molecular target: Fuc(a1-2)Gal(b1-3)GlcNAc
# Summary of the method: as §1
# [6] = molecular target: Fuc(a1-2)Gal(b1-3)GlcNAc(b1-2)Man(a1-3)[Fuc(a1-2)Gal(b1-3)GlcNAc(b1-2)Man(a1-6)]Man(b1-4)GlcNAc(b1-4)GlcNAc
# Summary of the method: as §1
# [7] = molecular target: Fuc(a1-2)Gal(b1-3)GlcNAc(b1-2)Man(a1-3)[Fuc(a1-2)Gal(b1-3)GlcNAc(b1-2)Man(a1-6)]Man(b1-4)GlcNAc(b1-4)[Fuc(a1-6)]GlcNAc
# Summary of the method: as §1
# [8] = molecular target: Fuc(a1-2)Gal(b1-3)GlcNAc(b1-3)Gal(b1-4)Glc
# Summary of the method: as §1
# [9] = molecular target: Fuc(a1-2)Gal(b1-3)GlcNAc(b1-3)GalNAc
# Summary of the method: as §1
# [10] = molecular target: Fuc(a1-2)Gal(b1-3)GlcNAc(b1-3)[Fuc(a1-2)Gal(b1-3)GlcNAc(b1-6)]GalNAc
# Summary of the method: as §1
# [11] = molecular target: Fuc(a1-2)Gal(b1-3)GlcNAc(b1-3)[Fuc(a1-3)[Gal(b1-4)]GlcNAc(b1-6)]Gal(b1-4)Glc
# Summary of the method: as §1
# [12] = molecular target: Fuc(a1-2)Gal(b1-3)GlcNAc(b1-3)[Gal(b1-4)GlcNAc(b1-6)]Gal(b1-4)Glc
# Summary of the method: as §1
# [13] = molecular target: Fuc(a1-2)Gal(b1-3)GlcNAc(b1-3)[Neu5Ac(a2-6)Gal(b1-4)GlcNAc(b1-6)]Gal(b1-4)Glc
# Summary of the method: as §1
# [14] = molecular target: Fuc(a1-2)Gal(b1-3)GlcNAc6S
# Summary of the method: as §1
# [15] = molecular target: Fuc(a1-2)Gal(b1-3)[Fuc(a1-4)]GlcNAc
# Summary of the method: as §1
# [16] = molecular target: Fuc(a1-2)Gal(b1-3)[Fuc(a1-4)]GlcNAc(b1-2)Man(a1-3)[Fuc(a1-2)Gal(b1-3)[Fuc(a1-4)]GlcNAc(b1-2)Man(a1-3)]Man(b1-4)GlcNAc(b1-4)GlcNAc
# Summary of the method: as §1
# [17] = molecular target: Fuc(a1-2)Gal(b1-3)[Fuc(a1-4)]GlcNAc(b1-2)Man(a1-3)[Fuc(a1-2)Gal(b1-3)[Fuc(a1-4)]GlcNAc(b1-2)Man(a1-6)]Man(b1-4)GlcNAc(b1-4)GlcNAc
# Summary of the method: as §1
# [18] = molecular target: Fuc(a1-2)Gal(b1-3)[Fuc(a1-4)]GlcNAc(b1-2)Man(a1-3)[Fuc(a1-2)Gal(b1-3)[Fuc(a1-4)]GlcNAc(b1-2)Man(a1-6)]Man(b1-4)GlcNAc(b1-4)[Fuc(a1-6)]GlcNAc(b1-4)[Fuc(a1-6)]GlcNAc
# Summary of the method: as §1
# [19] = molecular target: Fuc(a1-2)Gal(b1-3)[Fuc(a1-4)]GlcNAc(b1-3)[Fuc(a1-3)[Gal(b1-4)]GlcNAc(b1-6)]Gal(b1-4)Glc
# Summary of the method: as §1
binder,measurement,setting,value
B1,glycan array binding signal (z-score),Fuc(a1-2)Gal,-0.113
same,glycan array binding signal (z-score),Fuc(a1-2)Gal(b1-3)GalNAc,-0.086
same,glycan array binding signal (z-score),[1],0.168
same,glycan array binding signal (z-score),[2],0.193
same,glycan array binding signal (z-score),[3],-0.369
same,glycan array binding signal (z-score),[4],-0.43
same,glycan array binding signal (z-score),[5],-0.19
same,glycan array binding signal (z-score),Fuc(a1-2)Gal(b1-3)GlcNAc,-0.431
same,glycan array binding signal (z-score),[6],1.8
same,glycan array binding signal (z-score),[7],1.41
same,glycan array binding signal (z-score),[8],-0.007
same,glycan array binding signal (z-score),[9],-0.104
same,glycan array binding signal (z-score),[10],-0.277
same,glycan array binding signal (z-score),[11],-0.653
same,glycan array binding signal (z-score),[12],-0.127
same,glycan array binding signal (z-score),[13],0.477
same,glycan array binding signal (z-score),[14],0.055
same,glycan array binding signal (z-score),[15],-0.416
same,glycan array binding signal (z-score),[16],-0.362
same,glycan array binding signal (z-score),[17],2.44
same,glycan array binding signal (z-score),[18],0.133
same,glycan array binding signal (z-score),[19],-0.102

# Shown tab-delimited: part of the list above
binder	measurement	setting	value
B1	glycan array binding signal (z-score)	[4]	-0.43
same	glycan array binding signal (z-score)	[15]	-0.416
